Melanoma cell counts after drug treatment

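Human melanoma cell lines in 1,536-well plates were treated with a pair of drugs for 72 h, then fixed, stained and imaged. Values are the number of DAPI-stained nuclei as a percentage of the DMSO control: 100 is no effect, lower means fewer cells. Concentrations were fixed for each drug; these are the higher of two levels. These are primary screening values without error estimates.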 Only some of the drugs and lines screened are listed, without regard to their results.

First drug in all entries: tanespimycin, 10 nM, C=CCNC1=C2C[C@@H](C)C[C@H](OC)[C@H](O)[C@@H](C)/C=C(\C)[C@H](OC(N)=O)[C@@H](OC)/C=C\C=C(/C)C(=O)NC(=CC1=O)C2=O

| # | Second drug | COLO 800 | WM451Lu | C32 | COLO 829 | WM3619 | COLO 792 |
|---|---|---|---|---|---|---|---|
| 1 | CNC(=O)c1cc(Oc2ccc(NC(=O)Nc3ccc(Cl)c(C(F)(F)F)c3)cc2)ccn1 at 2000 nM | 122 | 64.5 | 27.4 | 105 | 65.3 | 75.3 |
| 2 | Cn1nnc2c(C(N)=O)ncn2c1=O at 10000 nM | 188 | 75.4 | 28.0 | 92.2 | 47.0 | 101 |
| 3 | NCC(=O)Nc1ccc(-n2nc(C(F)(F)F)cc2-c2ccc3c(ccc4ccccc43)c2)cc1 at 5000 nM | 93.1 | 61.2 | 6.6 | 71.4 | 65.7 | 63.1 |
| 4 | Cn1cc(/C=C2\C(=O)Nc3cccnc32)c2ccccc21 at 2000 nM | 74.2 | 70.1 | 12.3 | 97.9 | 40.6 | 95.3 |
| 5 | Clc1ccc(Nc2nnc(Cc3ccncc3)c3ccccc23)cc1 at 10000 nM | 61.2 | 70.5 | 37.3 | 50.1 | 49.3 | 48.6 |
| 6 | C[C@@H]1CCN(C(=O)CC#N)C[C@@H]1N(C)c1ncnc2[nH]ccc12 at 5000 nM | 110 | 101 | 15.0 | 73.0 | 48.7 | 76.0 |
| 7 | O=S(=O)(c1ccccc1)N(CC(F)(F)F)c1ccc(C(O)(C(F)(F)F)C(F)(F)F)cc1 at 7000 nM | 97.2 | 88.2 | 8.8 | 88.4 | 62.2 | 81.9 |
| 8 | CC[C@]1(O)C[C@H]2CN(CCc3c([nH]c4ccccc34)[C@@](C(=O)OC)(c3cc4c(cc3OC)N(C=O)[C@H]3[C@@](O)(C(=O)OC)[C@H](OC(C)=O)[C@]5(CC)C=CCN6CC[C@]43[C@@H]65)C2)C1 at 0.5 nM | 73.8 | 44.8 | 30.4 | 84.5 | 40.2 | 77.5 |
| 9 | O=C(/C=C/c1cccnc1)NCCCCC1CCN(C(=O)c2ccccc2)CC1 at 50 nM | 33.2 | 47.9 | 28.6 | 54.1 | 40.6 | 43.6 |
| 10 | COc1ccc(COc2ccc(Cc3cnc(N)nc3N)cc2OC)cc1 at 5000 nM | 135 | 81.3 | 16.8 | 84.0 | 44.3 | 106 |
| 11 | CN(c1ncccc1CNc1nc(Nc2ccc3c(c2)CC(=O)N3)ncc1C(F)(F)F)S(C)(=O)=O at 400 nM | 82.4 | 43.5 | 30.6 | 71.6 | 60.9 | 70.6 |
| 12 | COc1cc2ncnc(Nc3ccc(Oc4ccccc4)cc3)c2cc1OC at 10000 nM | 99.5 | 57.0 | 7.7 | 97.5 | 67.5 | 55.4 |
| 13 | CC(C)(C)c1cnc(CSc2cnc(NC(=O)C3CCNCC3)s2)o1 at 50 nM | 65.9 | 51.9 | 9.1 | 87.7 | 69.9 | 74.0 |
| 14 | O=C(Oc1ccc([N+](=O)[O-])cc1)N1CCC(C(O)(c2ccc3c(c2)OCO3)c2ccc3c(c2)OCO3)CC1 at 5000 nM | 112 | 110 | 20.3 | 88.3 | 48.2 | 77.9 |
| 15 | CC1(C)CCC(c2ccc(Cl)cc2)=C(CN2CCN(c3ccc(C(=O)NS(=O)(=O)c4ccc(N[C@H](CCN5CCOCC5)CSc5ccccc5)c(S(=O)(=O)C(F)(F)F)c4)cc3)CC2)C1 at 2000 nM | 30.7 | 51.5 | 24.4 | 77.8 | 39.6 | 15.2 |
| 16 | N#Cc1c(O)c2c(-c3ccc(-c4ccccc4O)cc3)csc2[nH]c1=O at 10000 nM | 92.2 | 74.0 | 8.8 | 87.7 | 53.2 | 77.9 |
| 17 | Cn1cncc1[C@@](N)(c1ccc(Cl)cc1)c1ccc2c(c1)c(-c1cccc(Cl)c1)cc(=O)n2C at 50 nM | 69.0 | 66.9 | 9.0 | 61.6 | 59.7 | 56.5 |
| 18 | C[C@]1(c2nc3c(C(N)=O)cccc3[nH]2)CCCN1 at 7000 nM | 42.8 | 69.5 | 54.0 | 92.3 | 48.1 | 63.9 |
| 19 | O=c1cc(-c2cccc3c2Sc2ccccc2S3)oc(N2CCOCC2)c1 at 5000 nM | 101 | 83.6 | 14.6 | 76.2 | 52.1 | 76.2 |
| 20 | CN(C)S(=O)(=O)c1ccc2c(c1)/C(=C/c1cc3c([nH]1)CCCC3)C(=O)N2 at 2000 nM | 32.3 | 58.4 | 15.3 | 76.9 | 65.4 | 51.7 |

The first 2 entries again:

- CNC(=O)c1cc(Oc2ccc(NC(=O)Nc3ccc(Cl)c(C(F)(F)F)c3)cc2)ccn1 at 2000 nM : COLO 800: 122; WM451Lu: 64.5; C32: 27.4; COLO 829: 105; WM3619: 65.3; COLO 792: 75.3
- Cn1nnc2c(C(N)=O)ncn2c1=O at 10000 nM : COLO 800: 188; WM451Lu: 75.4; C32: 28.0; COLO 829: 92.2; WM3619: 47.0; COLO 792: 101

Data from the primary screen of doi:10.1371/journal.pone.0140310, rounded.